No constants are given. Whether binding was seen depends on the method and setting. A result given as binding can be weak or reduced; the word gives no strength.

In PMC7615117, “DNSN-1 recruits GINS for CMG helicase assembly during DNA replication initiation in C. elegans” (Science (New York, N.Y.), 2023) one finds binding data, which are given here for one substance.

The target of assay [1] is T1, MCM-3 (C. elegans, UniProt Q9XVR7 1-812).
T1 construct: MCM-3, C. elegans; Subunit of m11, written alone for its contacts in the structure; also called MCM-3 subunit of MCM-2-7; source: S. cerevisiae, purified as part of recombinant CMG
T1 sequence: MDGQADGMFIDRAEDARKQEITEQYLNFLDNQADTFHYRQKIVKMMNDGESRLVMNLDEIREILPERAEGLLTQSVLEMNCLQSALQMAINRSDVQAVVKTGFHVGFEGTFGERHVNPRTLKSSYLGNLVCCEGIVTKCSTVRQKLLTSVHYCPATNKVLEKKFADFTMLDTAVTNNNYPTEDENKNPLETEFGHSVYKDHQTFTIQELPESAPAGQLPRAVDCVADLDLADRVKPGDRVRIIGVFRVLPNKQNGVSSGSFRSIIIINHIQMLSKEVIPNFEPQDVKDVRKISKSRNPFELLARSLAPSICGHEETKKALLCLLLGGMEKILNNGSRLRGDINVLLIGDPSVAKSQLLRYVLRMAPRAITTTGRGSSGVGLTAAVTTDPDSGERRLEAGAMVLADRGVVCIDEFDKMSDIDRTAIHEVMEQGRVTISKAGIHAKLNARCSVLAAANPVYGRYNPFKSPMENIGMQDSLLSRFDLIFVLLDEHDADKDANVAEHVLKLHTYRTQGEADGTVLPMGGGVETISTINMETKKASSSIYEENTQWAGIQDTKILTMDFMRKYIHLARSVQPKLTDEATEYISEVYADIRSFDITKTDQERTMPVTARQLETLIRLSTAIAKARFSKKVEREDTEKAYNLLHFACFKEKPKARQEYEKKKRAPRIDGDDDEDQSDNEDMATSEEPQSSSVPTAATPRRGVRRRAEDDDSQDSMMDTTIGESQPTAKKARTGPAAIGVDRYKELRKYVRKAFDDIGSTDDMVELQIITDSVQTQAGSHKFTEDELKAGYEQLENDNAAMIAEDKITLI
Nature of the assay: cryo-EM structure; CMG (125 nM) with fork DNA, AMP-PNP, TIM-1/TIPN-1 and DNSN-1 isoform c (each 1.3-fold molar excess), GraFix gradient with glutaraldehyde and BS3; both purified.

Assay [2] addresses T2, PSF-2 (C. elegans) (UniProt O62193).
T2 sequence: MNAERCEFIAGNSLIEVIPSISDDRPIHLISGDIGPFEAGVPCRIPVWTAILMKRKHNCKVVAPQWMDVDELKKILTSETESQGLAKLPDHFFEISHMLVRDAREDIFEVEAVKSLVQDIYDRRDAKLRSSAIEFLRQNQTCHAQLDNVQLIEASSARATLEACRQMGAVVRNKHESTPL
The assay is described as above.

As for recombinant C. elegans DNSN-1, the binding result in assay [1] and in assay [2] was “binds” in each case.
